In all, about 330,000 compounds went through this assay and about 1,000 (0.3%) were called active. Inconclusive results, whose numbers are uncertain, are shown with a selection of clear calls. The call rests on the fitted dose curve; in most records, active means well fitted inhibition curve with a large enough effect; inconclusive means small, poorly fitted or top-dose-only effect; inactive means no such curve, though single readings can be large or run the other way; tested in mouse RAW 264.7 cells. Potencies of inconclusive entries are doubtful fits and often do not repeat.
experiment: qHTS for Inhibitors of Cell Surface uPA Generation; conditions: cell surface uPA generation assay; series mostly up to 38.3 µM; activity change, negative = inhibition: at the top concentration; further: nearly all actives have a fitted effect of over 55% in size
Outline: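 Murine RAW 264.7 cells are treated for 24 h with compound up to 38.3 uM final. Cell ATP, measured by ATP-Lite, remains high if blocking the uPA cascade prevents LF from reaching the cytoplasm.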
On the % scale 0 is the no-effect control and ±100 the full control effect; potency means the concentration at half of the fitted maximal effect.

Q: With `O=C(Nc1ccc2c(c1)OCO2)C(=O)c1c[nH]c2ccccc12` as the molecule, how does the Potency read?
A: inconclusive: 5.01 µM [inhibitor, partial curve, poor fit]

Q: For `CCCSc1ccc([C@H]2N[C@@](CC(C)C)(C(=O)OC)[C@H]3C(=O)N(CC)C(=O)[C@@H]23)cc1`, which “activity change, negative = inhibition” value is on record?
A: inactive: -0.536%

Q: Which Potency does the source give for `CC(C)C(NC(=O)c1ccc(F)cc1)C(=O)N1CCC1` (stereo not drawn) here?
A: inconclusive: 12.6 µM [inhibitor, single point]

Q: With `CC[n+]1c(/C=C2\C=C(C)CC(C)(C)C2)sc2ccccc21` as the molecule, how does the “activity change, negative = inhibition” value read?
A: inactive: -23.8%

Q: With `CCC(C)Sc1cccc(-c2nc3ccc(Cl)cn3c2NCc2ccccc2)c1` (stereo not drawn) as the molecule, how does the Potency read?
A: inconclusive: 10 µM [inhibitor, single point]

Q: For `COc1cccc(-c2csc3nc[nH]c(=O)c23)c1`, which “activity change, negative = inhibition” value is on record?
A: inactive: -4.53%

Q: Which “activity change, negative = inhibition” value does the source give for `COc1cc(/C=N/NC(=O)c2ccoc2C)ccc1O` here?
A: inactive: -0.104%

Q: For `Cc1cc(N2CCN(C)CC2)nc2ccc(NC(=S)NCCN3CCc4ccccc4C3)cc12`, which Potency is on record?
A: inconclusive: 6.31 µM [inhibitor, single point]

Q: Which Potency does the source give for `CCCC(C)C(=O)Nc1nc(C)c(-c2csc(Nc3ccc(Cl)cc3)n2)s1` (stereo not drawn) here?
A: inconclusive: 12.6 µM [inhibitor, single point]

Q: Which “activity change, negative = inhibition” value does the source give for `O=C(O)Cn1cc(/C=c2/sc3nc4ccccc4n3c2=O)c2ccccc21` here?
A: inactive: -10.4%

Q: For `Cc1ccc2[nH]c(=O)c(CN(CCc3ccccc3)C(=O)N3CCOCC3)cc2c1`, which “activity change, negative = inhibition” value is on record?
A: inactive: 2.48%

Q: For `COc1cc(-c2nc(C(=O)NC3CCN(Cc4ccccc4)CC3)cc3c2[nH]c2ccccc23)cc(OC)c1OC`, which Potency is on record?
A: inconclusive: 12.6 µM [inhibitor, single point]

Q: With `C[C@H](NC(=O)CCC1CCC(=O)N1)c1ccccc1` (stereo partly drawn) as the molecule, how does the “activity change, negative = inhibition” value read?
A: inactive: -15%

Q: Which Potency does the source give for `O=S(=O)(c1ccccc1)N1CCN=C1SCc1c(F)cccc1Cl` here?
A: inconclusive: 11.2 µM [inhibitor, single point]

Q: For `Cc1ccc(NNC(=O)c2ccno2)cc1Cl`, which Potency is on record?
A: inconclusive: 12.6 µM [inhibitor, single point]

Q: For `COC(=O)c1ccccc1S(=O)(=O)N1CCC(C(=O)OC(C)C(=O)Nc2ccccc2OC)CC1` (stereo not drawn), which Potency is on record?
A: inconclusive: 35.5 µM [inhibitor, partial curve, poor fit]

Q: With `COCCN(C(=O)COC(=O)C1CCC(C(C)(C)C)CC1)c1c(N)n(Cc2ccccc2)c(=O)[nH]c1=O` (stereo not drawn) as the molecule, how does the Potency read?
A: active: 10 µM

Q: Which Potency does the source give for `NC(=O)C1CCN(CCS(=O)(=O)c2ccc(Cl)cc2)CC1` here?
A: inconclusive: 7.94 µM [inhibitor, partial curve, poor fit]

Q: For `COc1cc2c(C#CCCO)c(-c3ccsc3)oc(=O)c2cc1OC`, which Potency is on record?
A: inconclusive: 12.6 µM [inhibitor, partial curve, poor fit]

Q: With `COc1ccc(NC(=O)CN2CCCC2c2cccs2)cc1S(=O)(=O)N1CCCCC1` (stereo not drawn) as the molecule, how does the “activity change, negative = inhibition” value read?
A: inactive: -41.6%

Q: With `CCN(Cc1nc2cc(Cl)ccc2c(=O)[nH]1)C(=O)c1cccc(NC(=O)c2cccs2)c1` as the molecule, how does the “activity change, negative = inhibition” value read?
A: inactive: 15.3%

Q: Which Potency does the source give for `O=C1N[C@H]2CC=C[C@H]2Nc2ccccc21` here?
A: inconclusive: 11.2 µM [inhibitor, single point]

Q: For `NC(=O)C(C(=O)/C=C/c1ccc(Cl)cc1)=C1SCCS1`, which Potency is on record?
A: inconclusive: 1.12 µM [inhibitor, full curve, poor fit]

Q: Which Potency does the source give for `O=C(NCc1cccnc1)NC1(C(F)(F)F)Oc2ccc(Cl)cc2O1` (stereo not drawn) here?
A: inconclusive: 3.16 µM [inhibitor, partial curve, poor fit]

Q: For `Oc1ccccc1C1N=C(c2ccccc2)NC(c2ccccc2)=N1`, which “activity change, negative = inhibition” value is on record?
A: inactive: -0.744%

Q: With `Cc1cccc(C(=O)NCC(=O)OC(C)C(=O)Nc2ccc(Cl)cn2)c1` (stereo not drawn) as the molecule, how does the “activity change, negative = inhibition” value read?
A: inactive: -8.17%

Q: With `CCCCNc1c(-c2ccc(SC3CCCCC3)c(OC)c2)nc2ccc(C)cn12` as the molecule, how does the Potency read?
A: inconclusive: 8.91 µM [inhibitor, partial curve, poor fit]

Q: Which Potency does the source give for `CCOC(=O)c1ccc(S(=O)(=O)N2CCN(CCc3ccncc3)CC2)cc1` here?
A: inconclusive: 3.16 µM [inhibitor, partial curve, poor fit]

Q: For `N#C/C(C(N)=O)=C1/SC=C(c2ccccc2)N1c1ccccc1`, which “activity change, negative = inhibition” value is on record?
A: inactive: -3.02%

Q: Which Potency does the source give for `CC(=O)/C=C(\C)Nc1ccccc1O` here?
A: active: 7.94 µM

Q: For `CC(=O)N1N=C(c2cccs2)CC1c1cccc([N+](=O)[O-])c1` (stereo not drawn), which Potency is on record?
A: inconclusive: 5.62 µM [inhibitor, partial curve, poor fit]

Q: With `C(=C\c1nc2ccccc2[nH]1)/c1ccccc1` as the molecule, how does the Potency read?
A: inconclusive: 3.16 µM [inhibitor, partial curve, poor fit]

Q: For `Nc1ccccc1C#CC(=O)c1ccccc1`, which Potency is on record?
A: inconclusive: 2.82 µM [inhibitor, partial curve, poor fit]

Q: Which Potency does the source give for `O=C1[C@H](Cc2ccccc2)NCC=CC[C@H](c2ccc(Cl)cc2)N1Cc1ccc(Cl)cc1` here?
A: inconclusive: 7.94 µM [inhibitor, single point]

Q: With `Brc1ccc(CNCCCSc2ncccn2)cc1` as the molecule, how does the Potency read?
A: inconclusive: 3.16 µM [inhibitor, partial curve, poor fit]

Q: With `O=C(Nc1ccccc1)c1cn2ccccc2n1` as the molecule, how does the Potency read?
A: inconclusive: 10 µM [inhibitor, partial curve, poor fit]

Q: With `CCC(C)c1ccc2oc(-c3ccc(NC(=O)Cn4cnc5c(=O)n(C)c(=O)n(C)c54)cc3)nc2c1` (stereo not drawn) as the molecule, how does the “activity change, negative = inhibition” value read?
A: inactive: 3.56%

Q: With `COCCn1c(C)cc(C(=O)COC(=O)c2cccc(O)c2)c1C` as the molecule, how does the Potency read?
A: inconclusive: 1.12 µM [inhibitor, full curve, poor fit]

Q: Which “activity change, negative = inhibition” value does the source give for `O=S(=O)(c1ccc(Cl)c(NC(=S)N/N=C/c2ccc(O)cc2)c1)N1CCOCC1` here?
A: inactive: -14%

Q: Which “activity change, negative = inhibition” value does the source give for `O=C(c1cccc(F)c1)N1C2C=CC(C2)C1(C(F)(F)F)C(F)(F)F` (stereo not drawn) here?
A: inactive: 2.78%

Q: Which Potency does the source give for `O=c1oc(Nc2ccccc2Cl)nc2ccccc12` here?
A: inconclusive: 28.2 µM [inhibitor, single point]

Q: For `CCn1cc(C(=O)NCCCN2CCC(C)CC2)c(=O)c2cc(S(=O)(=O)N(C)C3CCCCC3)ccc21`, which Potency is on record?
A: inconclusive: 7.94 µM [inhibitor, single point]

Q: With `O=C(N/N=C/c1cccnc1)c1ccc2c(c1)OCCO2` as the molecule, how does the Potency read?
A: inconclusive: 3.16 µM [inhibitor, partial curve, poor fit]

Q: With `Cc1oc(-c2ccc(Cl)cc2)nc1CS(=O)CC(=O)NCCCN1CCN(Cc2ccccc2)CC1` (stereo not drawn) as the molecule, how does the Potency read?
A: inconclusive: 7.08 µM [inhibitor, partial curve, poor fit]

Q: Which Potency does the source give for `NC(=O)c1cc([N+](=O)[O-])c(Cl)cc1NCc1ccccn1` here?
A: inconclusive: 10 µM [inhibitor, partial curve, poor fit]

Q: With `COc1ccc(-c2cc(C(=O)N/N=C(\C)c3cccnc3)c3ccccc3n2)c(OC)c1` as the molecule, how does the Potency read?
A: inconclusive: 20 µM [inhibitor, single point]

Q: Which Potency does the source give for `CN1C(=O)CSc2ccc(NC(=O)N3CCc4ccccc43)cc21` here?
A: inconclusive: 5.01 µM [inhibitor, partial curve, poor fit]

Q: Which Potency does the source give for `O=c1cc(-c2ccccc2Cl)oc2c(NS(=O)(=O)c3ccccc3C(F)(F)F)ccc(O)c12` here?
A: inconclusive: 3.55 µM [inhibitor, partial curve, poor fit]

Q: Which “activity change, negative = inhibition” value does the source give for `O=C(NNc1nc(-c2ccccc2)cs1)c1ccco1` here?
A: inactive: -1.81%

Q: Which “activity change, negative = inhibition” value does the source give for `Cc1ccccc1C(=O)/C=C1/SCC(=O)N1C` here?
A: inactive: 1.17%

Q: Which “activity change, negative = inhibition” value does the source give for `C/C(=N\NC(=O)c1cccc(S(=O)(=O)N2CCCC2)c1)c1cccs1` here?
A: inactive: 4.26%

Q: For `FC(F)(F)c1ccccc1NC(=S)N1CCN(Cc2ccc3c(c2)OCO3)CC1`, which Potency is on record?
A: inconclusive: 12.6 µM [inhibitor, single point]

Q: For `CCCCCCCN1C(Nc2ccccc2)=NC[C@@H]1Cc1ccccc1`, which Potency is on record?
A: inconclusive: 7.94 µM [inhibitor, single point]

Q: With `COc1ccc(C)c2sc(N(CCN(C)C)C(=O)/C=C/c3cccs3)nc12` as the molecule, how does the Potency read?
A: inconclusive: 12.6 µM [inhibitor, single point]

Q: Which Potency does the source give for `CCCc1ccc(-c2ccc(C(=O)O)cc2)nc1` here?
A: inconclusive: 7.94 µM [inhibitor, partial curve, poor fit]

Q: With `O=C(CCC(=O)N1CCN(c2ccccc2F)CC1)N1CCN(c2ccccc2)CC1` as the molecule, how does the “activity change, negative = inhibition” value read?
A: inactive: -19.8%

Q: With `O=C(O)Cc1c[nH]c2ccc(O)cc12` as the molecule, how does the Potency read?
A: inconclusive: 11.2 µM [inhibitor, single point]

Q: Which “activity change, negative = inhibition” value does the source give for `O=C1C[C@@H]2c3c(cccc3CN1Cc1ccccc1F)C[C@@H](O)[C@H]2O` here?
A: inactive: 3.79%

Q: With `COC(=O)C1=C(C(=O)OC)[C@]2([C@H]3CC=CCN[C@@H](Cc4ccccc4)C(=O)N3Cc3ccccc3)C=C[C@H]1O2` as the molecule, how does the Potency read?
A: inconclusive: 10 µM [inhibitor, single point]

Q: For `O=C(CCl)N(Cc1cc(=O)[nH]c2ccccc12)c1ccccc1`, which Potency is on record?
A: inconclusive: 3.55 µM [inhibitor, partial curve, poor fit]

Q: With `COc1ccc2c(C(=O)CCl)c[nH]c2c1` as the molecule, how does the Potency read?
A: inconclusive: 12.6 µM [inhibitor, single point]

Q: With `COc1ccc(-c2csc3nc(C(C)(C)C)oc(=O)c23)cc1OC` as the molecule, how does the Potency read?
A: inconclusive: 7.08 µM [inhibitor, single point]

Q: With `Oc1cccc(/C=N/NC(=S)NCCN2CCOCC2)c1O` as the molecule, how does the Potency read?
A: inconclusive: 10 µM [inhibitor, partial curve, poor fit]

Q: Which Potency does the source give for `C[C@@H](C(=O)NCc1ccccc1)[C@H]1C[C@]1(C)[C@H](NC(=O)OCc1ccccc1)c1ccccc1` here?
A: inconclusive: 11.2 µM [inhibitor, single point]

Q: With `COCCNC(=O)CCn1nc(-c2ccc(C)cc2)c2ccccc2c1=O` as the molecule, how does the “activity change, negative = inhibition” value read?
A: inactive: -2.29%

Q: With `COc1ccc(S(N)(=O)=O)cc1C(=O)NCCCN1CCN(c2cccc(Cl)c2)CC1` as the molecule, how does the “activity change, negative = inhibition” value read?
A: inactive: 4.51%

Q: With `CC(=O)Nc1c(Cl)cnn(-c2ccccc2)c1=O` as the molecule, how does the Potency read?
A: inconclusive: 5.62 µM [inhibitor, partial curve, poor fit]

Q: With `Cc1ccccc1C1c2[nH]c3ccccc3c2CCN1Cc1cccn1-c1ncccn1` (stereo not drawn) as the molecule, how does the Potency read?
A: inconclusive: 7.08 µM [inhibitor, partial curve, poor fit]

From PubChem BioAssay AID540303 (National Center for Advancing Translational Sciences (NCATS), 2011)
